We go through one substance from paper doi:10.1101/2025.01.07.631775.

The assay concerns the target OsMADS63-FLAG transiently expressed in rice protoplasts (rice (Oryza sativa)) (UniProt B7F466). Put plainly: co-IP.

No constants are given. Whether binding was seen depends on the method and setting. Binding seen in cells or lysates may run through a third protein. Binding can be weak; no strength is given.

Consider “OsSIP1-HA transiently expressed in rice protoplasts (from UniProt Q10T66)”, for which the binding entry is “binds”.
